Measured values published in PubChem BioAssay (Tox21).
“And” between values parts separate entries of the source, which are not always exact repeats. Equal values may be shown once. This list was built around the results that the source calls inconclusive (neither active nor inactive); the mix of calls is not that of the screen. For part of these data: Potencies of inconclusive entries are doubtful fits and often do not repeat. Where a structure was tested more than once in an assay, its records may differ in their call. The source made the active and inactive calls. Unless noted, calls follow the shape of the full dose curve.

By UniProt entry, the sequences of proteins in these tests, tags left out.
UniProt P14416, whole entry, looked up: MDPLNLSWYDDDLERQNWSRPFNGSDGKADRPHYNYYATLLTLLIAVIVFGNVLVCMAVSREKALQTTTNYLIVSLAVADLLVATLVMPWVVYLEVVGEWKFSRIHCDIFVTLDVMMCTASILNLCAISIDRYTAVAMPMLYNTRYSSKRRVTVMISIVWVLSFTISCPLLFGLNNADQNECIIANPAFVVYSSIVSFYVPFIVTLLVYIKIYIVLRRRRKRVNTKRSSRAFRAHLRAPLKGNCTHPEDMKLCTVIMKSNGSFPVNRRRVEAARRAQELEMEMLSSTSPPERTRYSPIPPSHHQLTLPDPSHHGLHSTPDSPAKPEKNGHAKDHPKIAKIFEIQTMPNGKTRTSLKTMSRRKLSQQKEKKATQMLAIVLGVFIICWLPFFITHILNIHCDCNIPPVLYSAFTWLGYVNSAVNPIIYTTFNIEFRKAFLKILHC
UniProt P28223, whole entry, looked up: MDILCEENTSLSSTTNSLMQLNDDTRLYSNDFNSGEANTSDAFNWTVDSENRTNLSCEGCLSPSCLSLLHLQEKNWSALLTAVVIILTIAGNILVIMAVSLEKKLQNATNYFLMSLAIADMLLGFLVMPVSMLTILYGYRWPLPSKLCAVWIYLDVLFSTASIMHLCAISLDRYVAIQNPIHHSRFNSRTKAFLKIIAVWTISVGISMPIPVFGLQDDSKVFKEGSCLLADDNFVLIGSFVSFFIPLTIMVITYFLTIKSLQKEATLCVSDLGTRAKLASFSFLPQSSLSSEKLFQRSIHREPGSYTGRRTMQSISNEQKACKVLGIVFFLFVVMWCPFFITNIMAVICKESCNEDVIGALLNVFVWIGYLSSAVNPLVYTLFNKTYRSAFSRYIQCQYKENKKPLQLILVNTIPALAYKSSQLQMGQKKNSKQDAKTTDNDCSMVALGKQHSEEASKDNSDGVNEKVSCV

Columns and labels:
[1] = p53 small molecule agonists, cell-based qHTS assay with human liver microsomes: qHTS cell viability counter screen (AID 1963579); also: nearly all actives have a fitted effect of over 45% in size; also: potency is read from the fitted curve at half-maximal effect
Summary of the method: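 Metabolically activated exposure: compounds, human liver microsomes and NADPH (0.5 mg/mL final apiece) were added to p53RE-bla cells seeded 5 h earlier, left 16 h at 37 C, and then assessed for viability by CellTiter-Glo luminescence.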

[2] = p53 small molecule agonists, cell-based qHTS assay with rat liver microsomes: qHTS cell viability counter screen (AID 1963580); also: nearly all actives have a fitted effect of over 45% in size; also: potency is read from the fitted curve at half-maximal effect
Summary of the method: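 In HCT-116 cells carrying a p53 response element-bla reporter, compounds were metabolically activated in situ by rat liver microsomes with NADPH over 16 h. Cell ATP content then served as the cytotoxicity measure.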

[3] = molecular target: Beta-2 adrenergic receptor (Homo sapiens) (UniProt P07550); experiment: Adrenergic beta2 receptor (ADRB2) small molecule antagonists, cell-based qHTS assay (AID 1963592); details: CHO-ADRB2 cells, isoproterenol-stimulated cAMP HTRF ratio, 0.5 h; activity change, negative = inhibition: at 92.4 µM (top of the series) unless noted; also: nearly all actives have a fitted effect of over 50% in size; also: potency is read from the fitted curve at half-maximal effect
Summary of the method: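 Cells (CHO, stable ADRB2 overexpression) incubated 18-20hr at 37C; compounds added from DMSO; agonist mix (1nM isoproterenol, 100uM IBMX, 25uM Ro-20-1724) added; 0.5hr RT; d2-cAMP and anti-cAMP-cryptate added; 1hr RT; 665/615 nm read.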

[4] = molecular target: Beta-2 adrenergic receptor (Homo sapiens) (UniProt P07550); experiment: Adrenergic beta2 receptor (ADRB2) small molecule agonists, cell-based qHTS assay (AID 1963593); details: CHO-ADRB2 cells, cAMP HTRF, 30 min; also: potency is read from the fitted curve at half-maximal effect;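 as to activation: CHO cells stably overexpressing human ADRB2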
Summary of the method: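 CHO cells stably over-expressing ADRB2 were plated overnight at 37C, then dosed with compounds plus a stimulation mix containing 100uM IBMX and 25uM Ro-20-1724 for 0.5hr at room temperature. cAMP was measured by HTRF competition, 1hr.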

[5] = molecular target: D(2) dopamine receptor (Homo sapiens) (UniProt P14416); experiment: Dopamine D2 receptor (DRD2) small molecule agonists, cell-based qHTS assay (AID 1963594); details: HEK293-DRD2 cAMP HTRF, agonist mode, 30 min; activation: at 92.4 µM (top of the series) unless noted; also: nearly all actives have a fitted effect of over 35% in size; also: potency is read from the fitted curve at half-maximal effect
Summary of the method: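 HEK293 cells stably expressing DRD2 were cultured 24 h at 37 C, then given Ro20-1724 (0.1 mM final) and compounds for 10 min at room temperature. NKH477 (200nM) was then added for 30 min. cAMP was read by HTRF.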

[6] = molecular target: D(2) dopamine receptor (Homo sapiens) (UniProt P14416); experiment: Dopamine D2 receptor (DRD2) small molecule antagonists, cell-based qHTS assay (AID 1963595; active = well fitted inhibition curve with a large enough effect in the signal ratio in the repeat runs, with a control signal flat; inconclusive = weak or mixed curves, or effect the other way; the % refers to the signal ratio; also: potency is read from the fitted curve at half-maximal effect); details: HEK293-DRD2 cAMP HTRF antagonist mode; activity change, negative = inhibition: at 92.4 µM (top of the series) unless noted
Summary of the method: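 Cells were plated and grown for 24 h at 37 °C. Ro20-1724 (0.1 mM final) went in first, then compound for 10 min. NKH477 (200 nM) with quinpirole (12 nM) followed for 30 min at RT, then HTRF detection reagents for 1 h.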

[7] = p53 small molecule agonists, cell-based qHTS assay: qHTS cell viability counter screen (AID 1963581); also: nearly all actives have a fitted effect of over 45% in size; also: potency is read from the fitted curve at half-maximal effect
Summary of the method: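 HCT-116 p53RE-bla cells, 4,000/well, plated 5 h before compound pin transfer; 16 h at 37 C; bla substrate 2 h RT; then CellTiter-Glo, 30 min RT, luminescence.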

[8] = cAMP Responsive Elements (CRE) small molecule agonists, cell-based qHTS assay (AID 1963590); details: CRE-bla HEK293T, beta-lactamase FRET ratio, 3 h; activation: at 92.4 µM (top of the series) unless noted; also: potency is read from the fitted curve at half-maximal effect
Summary of the method: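 HEK 293T CRE-bla, 2,000 cells/well, 18 h preincubation 37 C/5% CO2; cpds (DMSO) pinned, 3 h; LiveBLAzer B/G FRET substrate, 2 h RT.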

[9] = cAMP Responsive Elements (CRE) small molecule antagonists, cell-based qHTS assay (AID 1963591; active = well fitted inhibition curve with a large enough effect in the signal ratio in the repeat runs, not every such curve was filed as active; inconclusive = weak or mixed curves, or effect the other way; the % refers to the signal ratio; also: potency is read from the fitted curve at half-maximal effect); details: CRE-bla HEK293T, beta-lactamase FRET ratio; activity change, negative = inhibition: at 92.4 µM (top of the series) unless noted
Summary of the method: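 Beta-lactamase reporter read by FRET substrate (LiveBLAzer B/G) after 2 h at room temperature. CRE-bla HEK293T cells had received compound plus 0.25 uM (final) NKH477 for 3 h at 37 °C.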

[10] = p53 small molecule agonists, cell-based qHTS assay (AID 1963582; active = well fitted activation curve with a large enough effect in the signal ratio in the repeat runs, not every such curve was filed as active; inconclusive = weak or mixed curves; the % refers to the signal ratio); details: HCT-116 p53RE-bla reporter, beta-lactamase FRET ratio, 16 h; activation: at 66 µM (top of the series) unless noted
Summary of the method: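 Reporter line: p53RE-bla. Pre-incubation 5 h, 37 C, 5% CO2; compound (DMSO, pin tool) 16 h, 37 C; B/G FRET substrate 2 h RT; fluorescence intensity read.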

[11] = molecular target: 5-hydroxytryptamine receptor 2A (Homo sapiens) (UniProt P28223); experiment: 5-hydroxytryptamine receptor 2A (HTR2A) small molecule antagonists, cell-based qHTS assay (AID 1963586); also: nearly all actives have a fitted effect of over 45% in size; also: potency is read from the fitted curve at half-maximal effect
Summary of the method: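 Antagonist-mode intracellular calcium assay: DOI (4 nM) added after 5 min compound pre-incubation at room temperature to dye-loaded HTR2A-CHO cells. Fluorescence followed for 3 min, sampled every second.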

[12] = activation: at 92.4 µM (top of the series) unless noted
% is scaled to controls: 0 for no effect and ±100 for the full control effect.

SMILES: CC1=C(Br)C(=O)C(Br)=C/C1=C(/c1ccccc1S(=O)(=O)O)c1cc(Br)c(O)c(Br)c1C
- Potency [1]: inconclusive: 34.9 µM [cytotoxic, single point]
- Potency [2]: inconclusive: 22 µM [cytotoxic, partial curve]
- Potency [3]: inconclusive: 23.4 µM [partial curve]
- Potency [4, 12]: inconclusive: 37 µM [partial curve]
- Potency [5]: inconclusive: 18.6 µM [falling, partial curve]
- Potency [6]: inconclusive: 23.4 µM [cytotoxic, partial curve]

SMILES: COCCO
- Potency [1]: inconclusive: 4.58 µM [cytotoxic, single point]
- Potency [7]: inconclusive: 10.2 µM [cytotoxic, single point]

SMILES: O=C(Nc1ccccc1SSc1ccccc1NC(=O)c1ccccc1)c1ccccc1
- Potency [1]: inconclusive: 14.5 µM [rising, partial curve, poor fit]
- Potency [2]: inconclusive: 45.8 µM [cytotoxic, single point]
- Potency [8]: inconclusive: 8.68 µM [falling, full curve, poor fit] and inconclusive: 12.2 µM [falling, full curve, poor fit]
- Potency [9]: inconclusive: 17.3 µM [cytotoxic] and inconclusive: 35.9 µM [cytotoxic]
- Potency [4, 12]: inconclusive: 5.48 µM [inhibitor, full curve, poor fit] and inactive

SMILES: Brc1c2ccccc2c(Br)c2ccccc12
- activity change, negative = cytotoxicity [1]: inactive: 1.01% [at 5.99 µM]
- Potency [2]: inconclusive: 0.0131 µM [cytotoxic, single point]
- activation [8]: inactive: 1.87% [at 8.39 µM]
- activity change, negative = inhibition [9]: inactive: 2.05% [at 8.39 µM]
- activation [4, 12]: inactive: 3.4% [at 8.39 µM]
- activation [5]: inactive: 2.55% [at 8.39 µM]

SMILES: C[C@@H]1CC[C@@]2(OC1)O[C@H]1C[C@H]3[C@@H]4CC[C@H]5C[C@@H](O)CC[C@]5(C)[C@H]4CC(=O)[C@]3(C)[C@H]1[C@@H]2C
- Potency [1]: inconclusive: 0.141 µM [rising, partial curve, poor fit]
- activity change, negative = cytotoxicity [7]: inactive: -10.7% [at 5.99 µM]
- activation [10]: inactive: -0.0756% [at 5.99 µM]
- activity, negative = inhibition [11]: inactive: 89.9% [at 5.62 µM]
- activation [8]: inactive: -0.0414% [at 8.39 µM]

SMILES: O=C1CCC/C=C\CCCCCCCCCC1
- Potency [1]: inconclusive: 28.9 µM [cytotoxic, partial curve]
- Potency [2]: inconclusive: 51.3 µM [cytotoxic, single point]
- Potency [4, 12]: inactive

SMILES: CC(C)c1ccc2sc3ccccc3c(=O)c2c1
- Potency [1]: inconclusive: 45.8 µM [cytotoxic, single point]
- Potency [2]: inconclusive: 51.3 µM [cytotoxic, single point]
- Potency [8]: inconclusive: 48.6 µM [activator, partial curve, poor fit]
- Potency [9]: inconclusive: 34.4 µM [activator, partial curve]
- Potency [4, 12]: inconclusive: 0.0017 µM [activator, full curve, poor fit]
- Potency [6]: inconclusive: 61.1 µM [inhibitor, partial curve, poor fit]

SMILES: COCC(=O)Nc1c(I)c(C(=O)NCC(O)CO)c(I)c(C(=O)N(C)CC(O)CO)c1I (stereo unspecified)
- Potency [1]: inconclusive: 22.3 µM [rising, single point]
- Potency [7]: inactive

SMILES: Oc1ccc(Cc2ccccc2O)cc1
- Potency [1]: inconclusive: 18.4 µM [cytotoxic, single point] and inconclusive: 18.2 µM [cytotoxic, single point]
- Potency [2]: active: 36.8 µM
- activation [8]: inconclusive: 1.13%
- activation [4, 12]: inconclusive: -18.9%
- activation ([4]; at 92.4 µM (top of the series)): inactive: -0.509%

SMILES: NNc1nncc2ccccc12
- Potency [1]: active: 32.4 µM
- Potency [2]: inconclusive: 51.3 µM [cytotoxic, single point]
- Potency [8]: inconclusive: 61.1 µM
- Potency [4, 12]: inconclusive: 4.61 µM [activator, full curve, poor fit]
- activation [4, 12]: inconclusive: -1.7%
- Potency [6]: active: 10.3 µM

SMILES: OCCNCc1ccccc1
- Potency [1]: inconclusive: 0.814 µM [cytotoxic, full curve, poor fit]
- Potency [7]: inactive
- Potency [10]: inactive
- Potency [11]: inconclusive: 4.21 µM [inhibitor, single point]
- Potency [4, 12]: inactive

SMILES: COC(=O)Nc1nc2ccc(S(=O)c3ccccc3)cc2[nH]1 (stereo unspecified)
- Potency [1]: inconclusive: 1.58 µM [rising, full curve]
- Potency [2]: inconclusive: 2.51 µM
- Potency [8]: inconclusive: 5.96 µM [rising, full curve, poor fit]
- activity change, negative = inhibition [9]: inconclusive: -11.1%
- Potency [4, 12]: inactive

SMILES: CN1CCC[C@@H]1Cc1c[nH]c2ccc(CCS(=O)(=O)c3ccccc3)cc12
- Potency [1]: inconclusive: 9.98 µM [rising, partial curve, poor fit]
- Potency [7]: inconclusive: 7.07 µM
- Potency [11]: active: 0.365 µM
- activation [4, 12]: inconclusive: -34.4% [at 42.5 µM]

SMILES: CCc1ccc(C(=O)C(C)CN2CCCCC2)cc1 (stereo unspecified)
- Potency [1]: inactive
- Potency [2]: inactive
- Potency [9]: inconclusive: 33.5 µM [fluorescent]
- Potency [3]: inactive
- Potency [4, 12]: inactive
- activity change, negative = inhibition [6]: inconclusive: -29.9% [at 42.5 µM]
